In patent publication US20050059977A1, “Monitoring circadian activity” (priority 2003, published 2005):
At least one structure is not confirmed: it was looked up by name or label, or the drawing left a doubt.

System: pineal gland
Assay: In vivo pineal microdialysis with drug infusion through the dialysis membrane; on-line HPLC of melatonin and serotonin (5-HT) secretion
Set-up: species or system rat
Conditions: forskolin 0.1 mg/ml infused through the microdialysis tube during the day
Description: Adult Sprague Dawley male rats (220-225 g) were house at 20-25° C. with lights on at 11 am (LD 14:10). Food and were available ad libitum throughout the experiment. Illumination was supplied by white fluorescent lamps (600 lux at cage level). Rats were placed in the LD cycles for at least 2 weeks before the start of surgery.
The animals were deeply anesthetized with a combination of Ketamine (10 mg/ml, 0.5 ml/100 g weight, i.p.) and Xylazine (2 mg/ml, 0.5 ml/100 g weight, i.p.). The animals' heads were shaved and positioned in a stereotaxic instrument. A longitudinal incision (approximately 2.5 cm) is made along the midline in the skin from anterior (level of the eyes) to posterior (base of the skull). The sagittal and lambdoid sutures were then exposed by scraping away the periosteum to the temporal muscles. […] The dura was exposed after grinding away the top bone, which was removed using iris forceps after making a cross cut with a scalpel blade (FIG. 1B). […] Bleeding was controlled with cotton wool pledget, or flushed with water and suctioned. […]
The analytical condition for the simultaneous detection of 5-HT/NAS/melatonin was based on Drijffiout et al. (J. Neurochem. 61: 936-942 (1993)) with minor modifications. A Shimadzu pump (Shimadzu, Columbia, USA) was used in conjunction with a Shimadzu fluorescence detector (FD, excitation: 280 nm, emission: 345 nm). […]

`C=C[C@@]1(C)CC(=O)[C@]2(O)[C@@]3(C)[C@@H](O)CCC(C)(C)[C@@H]3[C@H](O)[C@H](OC(C)=O)[C@@]2(C)O1` [forskolin] was tested. Which melatonin production did it give?
The melatonin production was “activated”.
